Laboratory results: publication PMC7371429
No constants are given. Whether binding was seen depends on the method and setting. In cells and extracts the contact can be indirect. Some results given as binding are weak or reduced against the parent protein; the word gives no strength.

Chains of the proteins cited; added tags and fusions are not shown.
UniProt Q92826: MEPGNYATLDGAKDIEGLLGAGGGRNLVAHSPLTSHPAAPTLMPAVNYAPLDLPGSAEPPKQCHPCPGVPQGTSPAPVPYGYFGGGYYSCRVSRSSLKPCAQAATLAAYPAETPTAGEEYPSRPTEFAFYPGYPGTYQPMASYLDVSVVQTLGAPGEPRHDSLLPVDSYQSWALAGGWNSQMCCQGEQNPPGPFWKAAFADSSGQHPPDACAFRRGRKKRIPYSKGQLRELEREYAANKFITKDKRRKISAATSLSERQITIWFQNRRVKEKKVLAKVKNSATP

Experiments:
[1] = molecular target: HOXB13, endogenous (human (endogenous in PrECs, CWR22Rv1 and LAPC4)) (UniProt Q92826); assay: proximity ligation; in situ PLA (Duolink In Situ Red, Mouse/Rabbit) on fixed, permeabilised cells with anti-HOXB13(F-9) and anti-MEIS1 antibodies; nuclear foci counted per nucleus
[2] = molecular target: HOXB13, endogenous (human (endogenous in PrECs, CWR22Rv1 and LAPC4)) (UniProt Q92826); assay: co-IP; whole cell lysates (20 mM Tris pH 7.5, 150 mM NaCl, 1% Triton-X 100); 1000 ug lysate precipitated with anti-HOXB13 (EPR17371) overnight at 4°C, Protein A/G agarose; blot for MEIS1 and HOXB13

B1: MEIS1 (myeloid ecotropic viral integration site 1), endogenous (protein, UniProt O00470 1-390)
chain: MAQRYDDLPHYGGMDGVGIPSTMYGDPHAARSMQPVHHLNHGPPLHSHQYPHTAHTNAMAPSMGSSVNDALKRDKDAIYGHPLFPLLALIFEKCELATCTPREPGVAGGDVCSSESFNEDIAVFAKQIRAEKPLFSSNPELDNLMIQAIQVLRFHLLELEKVHELCDNFCHRYISCLKGKMPIDLVIDDREGGSKSDSEDITRSANLTDQPSWNRDHDDTASTRSGGTPGPSSGGHTSHSGDNSSEQGDGLDNSVASPSTGDDDDPDKDKKRHKKRGIFPKVATNIMRAWLFQHLTHPYPSEEQKKQLAQDTGLTILQVNNWFINARRRIVQPMIDQSNRAVSQGTPYNPDGQPMGGFVMDGQQHMGIRAPGPMSGMGMNMGMEGQWHYM
- binding [1]: binds
- binding [2]: binds

B2: MEIS1, exogenous (lentiviral LV-MEIS1) (protein, UniProt O00470 1-390)
chain: B1 chain
- binding [1]: binds
- binding [2]: binds
